Structures can show the parent of a compound that is named as a salt. This is one part of the list. This data set is noisy: repeats of one test often differ as much as different tests do.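 Human U-2 OS cells stably expressing a GFP sensor with a nuclear import signal and classical export signal were transfected to produce PR50, a 50-repeat proline–arginine dipeptide from ALS/FTD gene C9ORF72. Nuclear-minus-cytoplasm GFP was scaled from DMSO (low) to PR-only (high), scored against plate test wells; strongly negative scores marked PR-reversing hits.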

The assay concerns U-2 OS NCT-C biosensor cells expressing PR50. The experiment in a line: Z-score of normalised NCT-C biosensor translocation index in PR50-expressing cells; higher = more nuclear biosensor (more disrupted nuclear export). The note with it: 3 µM; 24 h.
On to `CC(=O)Oc1ccc(/C=C/c2cc(OC(C)=O)cc(OC(C)=O)c2)cc1` [Triacetylresveratrol], for which the Z-score is inactive: 0.134.

On to `C[N+](C)(C)CC#CCOC(=O)Nc1cccc(Cl)c1`, for which the Z-score is inactive: -0.391.

Turning to `CC[C@@H](C)C(=O)O[C@H]1[C@H](O)[C@H]2[C@@H](CN3C[C@@H](C)CC[C@H]3[C@@]2(C)O)[C@@H]2C[C@]34O[C@]5(O)[C@@H](OC(=O)[C@](C)(O)[C@@H](C)O)CC[C@@]3(C)[C@@H]5[C@@H](OC(C)=O)[C@@H](OC(C)=O)[C@H]4[C@@]21O` (stereo in doubt) [Protoveratrine B], the Z-score is inactive: 0.806.

For `C[C@@H]1C[C@H]2CC[C@H](O2)[C@H](C)C(=O)O[C@@H](C)C[C@@H]2CC[C@@H](O2)[C@@H](C)C(=O)O[C@H](C)C[C@H]2CC[C@@H](O2)[C@H](C)C(=O)O[C@@H](C)C[C@@H]2CC[C@@H](O2)[C@@H](C)C(=O)O1` [Nonactin], the Z-score was inactive: -0.568.

Regarding `CCCN1C[C@H](CSC)C[C@@H]2c3cccc4[nH]cc(c34)C[C@H]21` [Pergolide methanesulfonate], the Z-score is inactive: -0.225.

As to `CCCCc1ccc(C(=O)O)nc1` [Fusaric acid], the Z-score is inactive: -0.429.

Consider `N.N.[Cl][Pt][Cl]` [Cisplatin], for which the Z-score was inactive: 0.323.

As for `COc1ccc2[nH]cc(CCN)c2c1` [O-Methylserotonin hydrochloride], the Z-score was inactive: -0.628.

Take `CCC12C=CCN3CC[C@@]4(c5ccc(OC)cc5N(C)[C@H]4[C@@](O)(C(=O)OC)[C@@H]1OC(C)=O)[C@@H]32` (stereo partly drawn) [Vindoline]: the Z-score was inactive: -0.144.

Consider `Cc1ncc(CNC(=O)N(CCCl)N=O)c(N)n1` [Nimustine hydrochloride], for which the Z-score is inactive: -0.361.

Turning to `CN(C)Cc1c[nH]c2ccccc12` [Gramine], the Z-score is inactive: -1.08.

With `C[N+]1(C)CCOC(O)(c2ccc(-c3ccc(C4(O)C[N+](C)(C)CCO4)cc3)cc2)C1` (stereo not drawn) [Hemicholinium-3], the Z-score was inactive: -0.806.

Consider `Nc1ccncc1` [Dalfampridine (4-Aminopyridine)], for which the Z-score was inactive: -0.0275.

As for `Nc1ccncc1` [4-aminopyridine], the Z-score is inactive: 0.186.

For `OC[C@H]1O[C@@H](n2cnc3cc(Cl)c(Cl)cc32)[C@H](O)[C@@H]1O` [5,6-  Dichlorobenzimida zole riboside], the Z-score was inactive: 1.61.

As to `CCCCCCCCCCCCCC(=O)O[C@@H]1[C@@H](C)[C@@]2(O)[C@@H](C=C(CO)C[C@]3(O)C(=O)C(C)=C[C@@H]23)[C@@H]2C(C)(C)[C@]12OC(C)=O` [Phorbol 12-myristate 13-acetate], the Z-score is inactive: 1.23.

Turning to `CCCCCCCCCCCCCC(=O)O[C@@H]1[C@@H](C)[C@@]2(O)[C@@H](C=C(CO)C[C@]3(O)C(=O)C(C)=C[C@@H]23)[C@@H]2C(C)(C)[C@]12OC(C)=O` [Phorbol 12-  myristate 13- acetate], the Z-score is inactive: 2.51.

As for `COc1ccc(C(=O)N2CCCC2=O)cc1` [Aniracetam], the Z-score was inactive: 0.624.

As for `O=C(O)CCCc1ccc(N(CCCl)CCCl)cc1` [Chlorambucil], the Z-score was inactive: 1.01.

Regarding `CC[C@@H](C(N)=O)N1CCCC1=O` [Levetiracetam], the Z-score is inactive: -0.518.

Turning to `CN1CCC(c2c[nH]c3ccc(O)cc23)CC1`, the Z-score was inactive: 2.96.

Turning to `CC(C)[C@@]1(NC(=O)[C@@H]2C[C@@H]3c4cccc5[nH]cc(c45)C[C@H]3N(C)C2)O[C@@]2(O)[C@@H]3CCCN3C(=O)[C@H](Cc3ccccc3)N2C1=O` [Dihydroergocristine mesylate], the Z-score is inactive: -0.902.

For the compound `O=C1C=C2C=C[C@@H]3C[C@@]2(O1)[C@H]1CCCCN31` [Securinine], the Z-score is inactive: -0.44.

Turning to `CC(=O)C1=C(O)[C@@H]2[C@H]3c4c[nH]c5cccc(c45)C[C@H]3C(C)(C)N2C1=O` [Cyclopiazonic acid], the Z-score is inactive: -0.868.

In the case of `CC(N)Cc1c[nH]c2ccc(OCc3cccs3)cc12` (stereo not drawn), the Z-score was inactive: 0.0606.

In the case of `COc1cc([C@@H]2c3cc4c(cc3[C@H](O)[C@H]3COC(=O)[C@@H]23)OCO4)cc(OC)c1OC` [Picropodophyllin], the Z-score was inactive: 0.0952.

As for `C/C=C(/C)C(=O)O[C@H]1CC[C@@]2(C)[C@@H]3CC[C@H]4[C@]5(O)C[C@H](O)[C@@]6(O)[C@@H](CN7C[C@@H](C)CC[C@H]7[C@@]6(C)O)[C@]5(O)C[C@@]42O[C@]13O` [Cevadine], the Z-score was inactive: -0.545.

For the compound `O[C@H]1[C@H]2[C@H](O)CCCN2C[C@H]1O` [Swainsonine], the Z-score is inactive: -0.391.

`NC(=O)CN1CC(O)CC1=O` (stereo not drawn) [Oxiracetam]: the Z-score was inactive: 1.45.

`CC(C)[C@@]1(O)[C@@H](OC(=O)c2ccc[nH]2)[C@@]2(O)[C@@]3(C)C[C@]4(O)O[C@@]5([C@H](O)[C@@H](C)CC[C@]35O)[C@@]2(O)[C@@]14C` [Ryanodine]: the Z-score was inactive: -1.21.

Take `CC(N[C@H]1C[C@@H]1c1ccccc1)c1ccc2c(c1)OCCO2` (stereo partly drawn): the Z-score was active: -2.21.

`NC(=O)c1ccc(OCC(O)CN2CC=C(c3ccc(F)cc3)CC2)cc1` (stereo not drawn): the Z-score is inactive: 0.707.

With `C[N+](C)(C)CC#CCN1CCCC1=O` [Oxotremorine methiodide], the Z-score was inactive: 0.509.

As for `COc1ccc2c(c1OC)C(=O)O[C@H]2C1c2cc3c(cc2CCN1C)OCO3` (stereo partly drawn) [D-β-Hydrastine], the Z-score was inactive: 0.432.

For the compound `C[N+]1(C)[C@@H]2C[C@@H](OC(=O)[C@H](CO)c3ccccc3)C[C@H]1[C@@H]1O[C@@H]12` [(-)-Scopolamine methyl bromide], the Z-score is inactive: -0.892.

In the case of `C[C@@H]1OC(=O)[C@H]2C[C@H]3CCCC[C@@H]3[C@@H](/C=C/[C@H]3CCC[C@H](C)N3C)[C@@H]12` [Himbacine], the Z-score was inactive: 0.272.

For `CCn1cc(C(=O)O)c(=O)c2cc3c(cc21)OCO3` [Oxolinic acid], the Z-score is inactive: -0.111.

As to `CN(C(=O)Cc1ccc(Cl)c(Cl)c1)C(CN1CCCC1)c1cccc(OCC(=O)O)c1` (stereo not drawn) [ICI 204,448  hydrochloride], the Z-score is inactive: -0.426.
